# PubChem BioAssay AID540256 (National Center for Advancing Translational Sciences (NCATS), 2011)
# The whole screen tested about 300,000 compounds, of which about 3,700 (1.2%) were called active. This list was built around the results that the source calls inconclusive (neither active nor inactive); the mix of calls is not that of the screen. Calls come from the whole dose curve; tested in HEK293 cells. Potencies of inconclusive entries are doubtful fits and often do not repeat.
# Assay: qHTS for Inhibitors of binding or entry into cells for Lassa Virus; note: nearly all actives have a fitted effect of over 50% in size
# Conditions: Lassa virus pseudotype entry inhibition, cell reporter; activity change, negative = inhibition: at 37.9 µM (top of the series) unless noted
# % is set by controls: 0 for no effect and ±100 for the full control effect; potency is the fitted concentration of half-maximal effect.
Compound,Potency,"activity change, negative = inhibition"
O=c1/c(=C/c2ccco2)sc2n1CN(c1cccc(Br)c1)CN=2,"inconclusive: 35.5 µM [inhibitor, single point]",
O=C(CCSc1ccccc1)N1CCN(C(=O)c2ccco2)CC1,,inactive: -35.5%
O=C1CC(N2CCOCC2)C(=O)N1c1ccccc1Cl (stereo unspecified),,inactive: 9.01%
Cc1cc(NC2C3CC4CC(C3)CC2C4)n2ncnc2n1 (stereo unspecified),"inconclusive: 6.51 µM [inhibitor, partial curve]",
Cc1ccccc1NC(=O)c1ccc(C)c(S(=O)(=O)NCc2cccnc2)c1,"inconclusive: 7.94 µM [activator, partial curve, poor fit]",
Cc1ccc2oc(C(=O)Nc3c(C(=O)c4ccc(C)c(F)c4)oc4ccccc34)cc(=O)c2c1,"inconclusive: 5.01 µM [activator, partial curve, poor fit]",
N#Cc1ncc(-c2ccc3c(c2)OCCOCCOCCOCCOCCO3)nc1C#N,"inconclusive: 29.1 µM [inhibitor, single point]",
CNC(=O)Oc1cccc(-c2cn3cc(Cl)ccc3n2)c1,"inconclusive: 0.562 µM [inhibitor, full curve, poor fit]",
COc1ccc(-c2coc3cc(OC(C)=O)ccc3c2=S)cc1,"inconclusive: 22.4 µM [inhibitor, single point]",
COC(=O)/C(=C\Nc1ccc(Cl)c2ccccc12)c1ncc(C(F)(F)F)cc1Cl,"inconclusive: 0.562 µM [activator, full curve, poor fit]",
O=C1CC(SC(=Nc2ccccc2)Nc2ccccc2)C(=O)N1c1cccc2ccccc12 (stereo unspecified),"inconclusive: 35.5 µM [inhibitor, single point]",
COc1cc(OC)cc(C(=O)NCc2ccc3c(c2)cc(C)n3C)c1,"inconclusive: 3.98 µM [inhibitor, full curve, poor fit]",
O=C(CSc1nnc(COc2ccccc2)n1-c1ccccc1)c1ccccc1,"inconclusive: 29.1 µM [inhibitor, single point]",
CCN1C(=O)C(O)(C2COC(C)(C)CC2=O)c2cc(Br)ccc21 (stereo unspecified),"inconclusive: 29.1 µM [inhibitor, single point]",
COc1cc(C(=O)NC(C(=O)Nc2cccc(C(C)=O)c2)C(C)C)cc(OC)c1OC (stereo unspecified),,inactive: -14.3%
O=C(COC(=O)CCS(=O)(=O)c1ccccc1)NC(=O)c1ccc(OC(F)F)cc1,,inactive: 2.16% [at 46.1 µM]
O=C(NNC(=O)c1cccc2ccccc12)c1ccc(Cl)cc1,,inactive: -1.27% [at 46.1 µM]
S=C(NCCc1ccccn1)Nc1cc(Cl)cc(Cl)c1,,inactive: -24.9% [at 46.1 µM]
COc1cc(CNc2ccc3[nH]c(=O)[nH]c3c2)ccc1OCc1ccccc1C,,inactive: -10.7%
CNC(=S)N/N=C(\C)c1ccc(C(C)(C)C)cc1,,inactive: 22.4%
COc1ccc(CN2C(=NC(=O)COc3ccccc3)SC3CS(=O)(=O)CC32)cc1 (stereo unspecified),,inactive: 0.364% [at 46.1 µM]
COc1ccc(Cl)c(NC(=O)C/C(C)=N/NC(=O)CCc2ccccc2)c1,"inconclusive: 7.94 µM [inhibitor, partial curve, poor fit]",
COc1cc(C(=O)N2C[C@@H]3CCC[C@H]2C3)ccc1OC1CCN(C(C)=O)CC1,,inactive: -6.91%

Compound,Potency,"activity change, negative = inhibition"
COC(=O)c1ccc(NC(=S)NNC(=O)c2ccccc2)cc1,,inactive: 7.43%
CCOC(=O)c1c(C)[nH]c(C)c1S(=O)(=O)N(C)CC(=O)Nc1cc(Cl)ccc1OC,"inconclusive: 15.8 µM [inhibitor, partial curve, poor fit]",
Cn1c(SCc2ccccc2)nnc1-c1ccncc1,,inactive: 27.4%
COc1cccc(NC(=O)CCNS(=O)(=O)c2ccc3c(c2)CCCC(=O)N3)c1,,inactive: 9.78% [at 46.1 µM]
CNC(=S)N1CCc2cc(OC)c(OC)cc2C1COc1ccc(OC)cc1 (stereo unspecified),"inconclusive: 7.08 µM [inhibitor, partial curve, poor fit]",
COc1cc(/C=C/CN2CCN(Cc3ccc(C)o3)C(CCO)C2)ccc1O (stereo unspecified),"inconclusive: 1.26 µM [inhibitor, single point]",
Cc1ccc(NC(=S)/N=C(\N)Nc2nc(C)c3cc(C)c(C)cc3n2)cc1C,"inconclusive: 3.55 µM [inhibitor, partial curve, poor fit]",
COc1ccccc1/C=C/C(=O)NC(=S)NC(C)C,,inactive: -14.9%
CC1(C)Cc2nc3sc4c(N(CCO)CCO)ncnc4c3cc2CO1,,inactive: -0.375%
COc1cc(OC)cc(-c2nnc(SCC(=O)N3CCOCC3)o2)c1,,inactive: 1.45%
CCOC(=O)C1CCC(CN(Cc2c(Cl)cccc2Cl)S(=O)(=O)c2ccc(F)c(C)c2)CC1 (stereo unspecified),"inconclusive: 1.58 µM [inhibitor, full curve, poor fit]",
CC1(C)Cc2c(c(N3CCOCC3)nc3sc4c(NN)ncnc4c23)CS1,,inactive: -10.1%
O=C(CSC1=Nc2ccccc2C2=NC(CCC(=O)NC3CCCCC3)C(=O)N12)Nc1cccc(Cl)c1 (stereo unspecified),,inactive: 7.54% [at 46.1 µM]
COc1cccc(C(=O)NCC(=O)OC(C)C(=O)NC23CC4CC(CC(C4)C2)C3)c1 (stereo unspecified),"inconclusive: 3.16 µM [inhibitor, full curve, poor fit]",
O=C(NC(=S)Nc1ccccc1N1CCOCC1)c1cccs1,,inactive: -1.29%
CCOc1cc(C)c(S(=O)(=O)NC2CC(C)(C)NC(C)(C)C2)cc1C,"inconclusive: 35.5 µM [inhibitor, single point]",
Cc1ccc(NC(=O)c2noc3c2CCc2ccccc2-3)cc1,"inconclusive: 4.11 µM [activator, single point]",
Cn1c(Cn2nnc3ccccc32)nnc1SCC(=O)Nc1nccs1,,inactive: -2.29%
COc1ccc(CC(=O)Nc2nc(-c3ccc(F)c(F)c3)cs2)cc1OC,active: 11.2 µM,
Oc1cccc(Nc2nc(-c3ccccc3)nc3ccccc23)c1,"inconclusive: 6.31 µM [activator, single point]",
O=C(O)Cc1csc(-c2ccc(F)cc2)n1,"inconclusive: 0.794 µM [inhibitor, single point]",
CCOC(=O)c1cc(S(=O)(=O)NC2CCC(C)CC2)cn1C (stereo unspecified),"inconclusive: 35.5 µM [inhibitor, partial curve, poor fit]",
CCC(=O)N(CC)Cc1cc(=O)[nH]c2ccccc12,"inconclusive: 5.8 µM [inhibitor, single point]",

# Complete entries as entered above:
# `O=C1CC(SC(=Nc2ccccc2)Nc2ccccc2)C(=O)N1c1cccc2ccccc12` (stereo unspecified) as listed: Potency: inconclusive: 35.5 µM [inhibitor, single point]
# `COc1cc(OC)cc(C(=O)NCc2ccc3c(c2)cc(C)n3C)c1` as listed: Potency: inconclusive: 3.98 µM [inhibitor, full curve, poor fit]
